Measurements from “University of Dundee, Small-Polar-MMV Screening Library” (2021), ChEMBL document CHEMBL3988442.

Amino acid sequences for entries named in this document (tags omitted).
UniProt E9BF75, entry or part of it: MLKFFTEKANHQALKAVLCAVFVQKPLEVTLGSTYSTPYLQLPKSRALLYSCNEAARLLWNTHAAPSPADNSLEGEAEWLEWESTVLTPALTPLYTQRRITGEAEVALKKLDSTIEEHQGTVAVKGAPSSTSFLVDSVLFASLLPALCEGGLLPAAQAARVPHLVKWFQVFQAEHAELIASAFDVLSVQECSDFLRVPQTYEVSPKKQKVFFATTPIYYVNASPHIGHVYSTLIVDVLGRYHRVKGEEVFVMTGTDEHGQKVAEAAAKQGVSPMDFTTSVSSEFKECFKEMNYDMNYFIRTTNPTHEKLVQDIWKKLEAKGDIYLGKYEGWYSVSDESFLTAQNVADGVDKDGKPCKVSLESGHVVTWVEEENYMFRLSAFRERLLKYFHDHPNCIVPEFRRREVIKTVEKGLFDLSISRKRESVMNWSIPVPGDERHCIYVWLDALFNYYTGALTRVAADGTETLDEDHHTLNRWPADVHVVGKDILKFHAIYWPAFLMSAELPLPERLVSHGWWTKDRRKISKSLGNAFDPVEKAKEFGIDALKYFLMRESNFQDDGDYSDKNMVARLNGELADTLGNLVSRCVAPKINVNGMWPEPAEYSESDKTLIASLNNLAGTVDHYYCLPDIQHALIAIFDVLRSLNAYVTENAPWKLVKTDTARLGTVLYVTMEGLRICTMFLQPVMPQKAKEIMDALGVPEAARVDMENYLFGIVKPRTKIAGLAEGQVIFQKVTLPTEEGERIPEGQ

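Primary screen of methionyl-tRNA synthetase; the read-out is not stated. Target: Methionyl-tRNA synthetase (putative), Leishmania donovani (UniProt E9BF75). The test concentration is not given. The values are filed as inhibition. About 68,000 compounds were tested under these conditions; 0.035% (about 24) showed 50% or more at least once.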

Results are percentages, as filed.
The record does not define 0% and 100%; most values in the screen are far below 50% and negative numbers occur (in some assays of this library far below -100).
The compounds are a random part of those screened.

structure	inhibition
Cc1ccc(Cl)c(NC(=O)NC2(C)CCOC2)c1 (centres unmarked)	7.125%
N#Cc1cnc(NCc2ccc(C(=O)NC3CC3)cc2)c(Cl)c1	6.407%
Cc1nn(C)c(C)c1-c1ccnc(N(C)Cc2noc(C(C)C)n2)n1	6.72%
CN(C)C(=O)c1ccc2c(c1)N(C)C(CC(=O)NCc1ccno1)CO2 (centres unmarked)	11.5%
CC(c1cccc(-c2cn(Cc3ccoc3)nn2)c1)N(C)C (centres unmarked)	7.263%
CC(C)(C)C(=O)N1C[C@@H]2COC[C@]2(c2nnc(C3CC3)o2)C1	5.376%
CCN1CCN(CCNC(=O)c2sc(C(C)C)nc2C)CC1	14.75%
NC(=O)Nc1cccc(CNC(=O)CCCOCc2ccccc2)c1	10.29%
O=C(N[C@H]1CN[C@H]2CCCO[C@H]21)c1cscn1	10.5%
CC(O)CN1CCC(CNCc2ccc(C(N)=O)cc2)CC1 (centres unmarked)	11.96%
Cc1ocnc1C(=O)Nc1ccc(-c2nnc(N(C)C)o2)cc1	16.8%
O=C(Cc1ccccn1)N1CCc2c(O)nc(-c3cnccn3)nc2C1	16.67%
CCn1ccc(C(=O)N2CCCN(Cc3ccccc3F)CC2)cc1=O	-7.56%
COc1cc(C)ccc1S(=O)(=O)N1CC[C@](C)(O)[C@H](C)C1	17.58%
O=C(NCC1CCCO1)Nc1nnc(C(F)(F)F)s1 (centres unmarked)	11.15%
Nc1cccc(C2CN(C(=O)CN3CCOCC3)CCO2)n1 (centres unmarked)	12.07%
CN(C)CCN1CCc2c(nnn2C)C1COCc1ccccc1 (centres unmarked)	1.099%
Cc1nn(C)c(C)c1-c1ccc(=O)n(C(C)C(=O)NC2CCCC2)n1 (centres unmarked)	4.651%
CC(=O)Nc1ccsc1C(=O)N1CC[C@@H]2CC[C@H](C1)N2C	-5.514%
Cc1nc(O)c2nnn(C[C@H]3CCCN3C(=O)c3ccccc3F)c2n1	10.42%
CCC(C)c1ccc(NC(=O)C2CCN(C(=O)N(C)C)CC2)cc1 (centres unmarked)	1.961%
CCO[C@H]1CN(C)C[C@@H]1NC(=O)c1cc(C)nc2c(C)cccc12	5.115%
Cc1cc(C2CCCN(CC(=O)N3CCc4ccccc43)C2)n[nH]1 (centres unmarked)	10.34%
O=C(C1CNCCN1C(=O)CCc1cccnc1)N1CCOCC1 (centres unmarked)	10.7%
CN1CCC2(CC1)CN(C)C(=O)C[C@@H]2C(F)(F)F	16.67%
COc1ccc(CNCC(C)Oc2ccccn2)cc1 (centres unmarked)	6.364%
O=C(CCc1ccsc1)N1CCCCC1Cn1cccn1 (centres unmarked)	16.57%
Cc1ccc(O)c(CNC2CCCN(Cc3noc(C4CC4)n3)C2)n1 (centres unmarked)	21.79%
O=C1C[C@H]2CC[C@@H](CN1)N2c1cc(-c2ccccc2F)nc2ccnn12	8.657%
CN1CCN([C@@H]2CN(C(=O)c3cc4ccc(F)cc4[nH]3)C[C@H]2O)CC1	18.55%
Cc1nn(C)cc1CN1CCC(c2ncc(Cl)cc2S(C)(=O)=O)CC1	9.688%
Cc1cc(NC(C)C(=O)NCC(F)(F)F)nc(-c2ccncc2)n1 (centres unmarked)	11.56%
CO[C@H]1CCN(c2nnc(C)s2)C[C@@H]1Cc1ccccc1	14.01%
F[C@@H]1CN(Cc2ccccc2)C[C@@H]1OCc1nc2ccccc2[nH]1	12.03%
OCCN1CCN(Cc2coc(-c3cccc(F)c3)n2)CC1	4.843%
CC(C)c1ncc2c(n1)CN(Cc1cccc(OCC(N)=O)c1)CC2	16.33%
COc1ccc(C(C(=O)O)N(C)CCN2CCOCC2)c(C)c1 (centres unmarked)	4.416%
Cc1ccc(CN2CC[C@H](c3nnc(COc4ccc(F)cc4)o3)C2)o1	7.143%
CC(C)N(C)[C@@H]1CCN(S(C)(=O)=O)[C@H]1Cc1ccccc1	1.093%
O=C(Nc1ccccc1Cl)N1CCN(CC2CC2)[C@@H]2CS(=O)(=O)C[C@@H]21	12.3%
O=C1CN(Cc2cn(C3CCN(C4CSCCSC4)CC3)nn2)CCN1	6.969%
Cn1cc(C2CCCN2C(=O)c2cnc(-c3ccco3)s2)cn1 (centres unmarked)	22.64%
c1cnc(N2CCOCC3(CCCN(CC4CCOCC4)C3)C2)nc1 (centres unmarked)	11.11%
Cc1cccc2c1nc(COCC(=O)O)n2-c1ccc(N)nc1	2.857%
Fc1ccc(OCCCN2CC(n3cccn3)C2)cc1	2.29%
Cc1cccc(-c2cc(-c3c(C)nn(CCO)c3C)c(C#N)c(N)n2)c1	13.43%
O=C(NCc1nnc2n1CCC2)c1ccc(C2CCCO2)s1 (centres unmarked)	14.6%
Cc1cc(=O)c2ccccc2n1CC1CCCN(C)C1 (centres unmarked)	7.292%
Cc1ccccc1-n1ncc(C(C)N)c1C (centres unmarked)	0.8955%
Cc1nn(C)c(C)c1NC(=O)CCn1ncc2ccc(Cl)cc21	-0.2513%
CCN(CC(=O)Nc1cc(Cl)ccc1C)C(=O)c1ccncc1	12.01%
Cn1cc(C[C@H]2[C@H](O)CCN2C(=O)C2CCOCC2)cn1	12.77%
O=S(=O)(c1ccccc1)N1CCC2(CCCN2Cc2cccc(F)c2)C1 (centres unmarked)	11.44%
CCCC(=O)n1ccn(S(=O)(=O)c2ccc(C)cc2)c1=O	16.91%
CCSCCn1c(=O)n(Cc2ccc(F)cc2)c2ncc(C(=O)O)cc21	13.59%
CCc1nc(CN2CCCN(CC(O)c3ccccc3)CC2)no1 (centres unmarked)	20.34%
COCC(=O)N1CCc2nc(NC(C)C)nc(NC(C)C)c2CC1	14.47%
CCOC(=O)c1cnn(-c2cc(C)ccn2)c1N	9.511%
CN(Cc1cccc(F)c1)C(=O)CN1CCOC(Cn2cccn2)C1 (centres unmarked)	7.317%
Cn1ccnc1C1CCN(S(=O)(=O)c2ccc3[nH]c(=O)[nH]c3c2)CC1	5.279%
CCN1CC2(CC1=O)CN(Cc1cccs1)CCN(C(=O)C(C)C)C2 (centres unmarked)	18.1%
CCCc1cc(NCCCC2CCOC2)n2nccc2n1 (centres unmarked)	13.87%
COc1ccc(OCc2sc(C3(O)CCCNCC3)nc2C)cc1 (centres unmarked)	17.47%
Cc1cccc2nc(CN3CCCC3Cn3cncn3)cn12 (centres unmarked)	19.94%
CC(C)CC(=O)N1Cc2ccccc2CC1C(=O)Nc1nccs1 (centres unmarked)	14.41%
CN(C)CCOCC1CN(CCN(C)C)Cc2ccnn2C1 (centres unmarked)	2.614%
Cc1nc(C)n(C2CCCN(C(=O)c3cccc4[nH]ncc34)C2)n1 (centres unmarked)	3.78%
CC(C)(C)OC(=O)N1CCC[C@H](NCC2=CCCOC2)C1	9.756%
NCc1ccc(Oc2cccc(Cl)c2Cl)cc1	10.48%
Cc1cnn(CC2CCCCN2CCCS(=O)(=O)N(C)C)c1 (centres unmarked)	4.913%
CNS(=O)(=O)c1ccc(CNC(=O)C2CCCN(C)C2)cc1 (centres unmarked)	23.92%
COCC1N(C(=O)c2ccco2)[C@H]2CC[C@]1(O)CC2 (some centres unmarked)	8.493%